# Test results as given in the supplement of paper PMC8728848.
# Some of the results follow.
# How the values were obtained:
# Assay in all cases: glycan array binding signal (z-score within array); higher = stronger binding
# Settings in all cases: glycan notation: IUPAC condensed, linker removed
# Fuc(a1-2)Gal = target: Fuc(a1-2)Gal
# Summary of the method: (§1)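 The binding signal is a Z-score computed within each array and averaged over linkers. Arrays of the same protein sequence at different concentrations or buffers were also averaged together. Data originate from 3228 arrays in the Consortium for Functional Glycomics database, kept only where the protein sequence was available.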
# Fuc(a1-2)Gal(b1-3)GalNAc = target: Fuc(a1-2)Gal(b1-3)GalNAc
# Summary of the method: as §1
# [1] = target: Fuc(a1-2)Gal(b1-3)GalNAc(a1-3)[Fuc(a1-2)]Gal(b1-4)Glc
# Summary of the method: as §1
# [2] = target: Fuc(a1-2)Gal(b1-3)GalNAc(a1-3)[Fuc(a1-2)]Gal(b1-4)GlcNAc
# Summary of the method: as §1
# [3] = target: Fuc(a1-2)Gal(b1-3)GalNAc(b1-3)Gal
# Summary of the method: as §1
# [4] = target: Fuc(a1-2)Gal(b1-3)GalNAc(b1-3)Gal(a1-4)Gal(b1-4)Glc
# Summary of the method: as §1
# [5] = target: Fuc(a1-2)Gal(b1-3)GalNAc(b1-4)[Neu5Ac(a2-3)]Gal(b1-4)Glc
# Summary of the method: as §1
# Fuc(a1-2)Gal(b1-3)GlcNAc = target: Fuc(a1-2)Gal(b1-3)GlcNAc
# Summary of the method: as §1
# [6] = target: Fuc(a1-2)Gal(b1-3)GlcNAc(b1-2)Man(a1-3)[Fuc(a1-2)Gal(b1-3)GlcNAc(b1-2)Man(a1-6)]Man(b1-4)GlcNAc(b1-4)GlcNAc
# Summary of the method: as §1
# [7] = target: Fuc(a1-2)Gal(b1-3)GlcNAc(b1-2)Man(a1-3)[Fuc(a1-2)Gal(b1-3)GlcNAc(b1-2)Man(a1-6)]Man(b1-4)GlcNAc(b1-4)[Fuc(a1-6)]GlcNAc
# Summary of the method: as §1
# [8] = target: Fuc(a1-2)Gal(b1-3)GlcNAc(b1-3)Gal(b1-4)Glc
# Summary of the method: as §1
# [9] = target: Fuc(a1-2)Gal(b1-3)GlcNAc(b1-3)GalNAc
# Summary of the method: as §1
# [10] = target: Fuc(a1-2)Gal(b1-3)GlcNAc(b1-3)[Fuc(a1-2)Gal(b1-3)GlcNAc(b1-6)]GalNAc
# Summary of the method: as §1
# [11] = target: Fuc(a1-2)Gal(b1-3)GlcNAc(b1-3)[Gal(b1-4)GlcNAc(b1-6)]Gal(b1-4)Glc
# Summary of the method: as §1
# [12] = target: Fuc(a1-2)Gal(b1-3)GlcNAc(b1-3)[Neu5Ac(a2-6)Gal(b1-4)GlcNAc(b1-6)]Gal(b1-4)Glc
# Summary of the method: as §1
# [13] = target: Fuc(a1-2)Gal(b1-3)GlcNAc6S
# Summary of the method: as §1
# [14] = target: Fuc(a1-2)Gal(b1-3)[Fuc(a1-4)]GlcNAc
# Summary of the method: as §1
# [15] = target: Fuc(a1-2)Gal(b1-3)[Fuc(a1-4)]GlcNAc(b1-2)Man(a1-3)[Fuc(a1-2)Gal(b1-3)[Fuc(a1-4)]GlcNAc(b1-2)Man(a1-3)]Man(b1-4)GlcNAc(b1-4)GlcNAc
# Summary of the method: as §1
# [16] = target: Fuc(a1-2)Gal(b1-3)[Fuc(a1-4)]GlcNAc(b1-2)Man(a1-3)[Fuc(a1-2)Gal(b1-3)[Fuc(a1-4)]GlcNAc(b1-2)Man(a1-6)]Man(b1-4)GlcNAc(b1-4)[Fuc(a1-6)]GlcNAc(b1-4)[Fuc(a1-6)]GlcNAc
# Summary of the method: as §1
# [17] = target: Fuc(a1-2)Gal(b1-3)[Fuc(a1-4)]GlcNAc(b1-3)[Fuc(a1-3)[Gal(b1-4)]GlcNAc(b1-6)]Gal(b1-4)Glc
# Summary of the method: as §1
# [18] = target: Fuc(a1-2)Gal(b1-3)[Fuc(a1-4)]GlcNAc(b1-3)[Gal(b1-4)GlcNAc(b1-6)]Gal(b1-4)Glc
# Summary of the method: as §1
# [19] = target: Fuc(a1-2)Gal(b1-4)Fuc(a1-3)]GlcNAc(b1-2)Man(a1-3)[Fuc(a1-2)Gal(b1-4)[Fuc(a1-3)]GlcNAc(b1-2)Man(a1-6)]Man(b1-4)GlcNAc(b1-4)GlcNAc
# Summary of the method: as §1
# Fuc(a1-2)Gal(b1-4)Glc = target: Fuc(a1-2)Gal(b1-4)Glc
# Summary of the method: as §1
# Fuc(a1-2)Gal(b1-4)Glc6S = target: Fuc(a1-2)Gal(b1-4)Glc6S
# Summary of the method: as §1
# Fuc(a1-2)Gal(b1-4)GlcNAc = target: Fuc(a1-2)Gal(b1-4)GlcNAc
# Summary of the method: as §1
# [20] = target: Fuc(a1-2)Gal(b1-4)GlcNAc(b1-2)Man
# Summary of the method: as §1
# [21] = target: Fuc(a1-2)Gal(b1-4)GlcNAc(b1-2)Man(a1-3)[Fuc(a1-2)Gal(b1-4)GlcNAc(b1-2)Man(a1-6)]Man(b1-4)GlcNAc(b1-4)GlcNAc
# Summary of the method: as §1
# [22] = target: Fuc(a1-2)Gal(b1-4)GlcNAc(b1-2)Man(a1-3)[Fuc(a1-2)Gal(b1-4)GlcNAc(b1-2)Man(a1-6)]Man(b1-4)GlcNAc(b1-4)[Fuc(a1-6)]GlcNAc
# Summary of the method: as §1
# [23] = target: Fuc(a1-2)Gal(b1-4)GlcNAc(b1-2)[Fuc(a1-2)Gal(b1-4)GlcNAc(b1-4)]Man(a1-3)[Fuc(a1-2)Gal(b1-4)GlcNAc(b1-2)Man(a1-6)]Man(b1-4)GlcNAc(b1-4)GlcNAc
# Summary of the method: as §1
# [24] = target: Fuc(a1-2)Gal(b1-4)GlcNAc(b1-3)Gal(b1-4)GlcNAc
# Summary of the method: as §1
binder,measurement,setting,value
Epa19 (Candida glabrata) (protein) MGSSHHHHHHSSGLVPRGSHMASSKDPTRFPIGCSPQVLKTQPGLAVKLYSYGHPVPGCSYITYQYPDFPRSGYKKERKLADITGVNGKIDIDLKPNDPCRVLTGHLPSNYNYPDTLTYTNFTMILYGYFQPKVTGYHTFNLEADDLLFMNLGAGNAFDCCKAESTLDNFGNYQSYSLWGSDYAKANITVFLVSGVYYPIRLFYVNRDNNAVIDFSFTTEFDKEKVHDFTSYFFSASDGEQCPGSV,glycan array binding signal (z-score),Fuc(a1-2)Gal,-0.231
same,glycan array binding signal (z-score),Fuc(a1-2)Gal(b1-3)GalNAc,-0.447
same,glycan array binding signal (z-score),[1],-0.298
same,glycan array binding signal (z-score),[2],-0.156
same,glycan array binding signal (z-score),[3],0.988
same,glycan array binding signal (z-score),[4],0.088
same,glycan array binding signal (z-score),[5],0.201
same,glycan array binding signal (z-score),Fuc(a1-2)Gal(b1-3)GlcNAc,-0.527
same,glycan array binding signal (z-score),[6],0.072
same,glycan array binding signal (z-score),[7],-0.362
same,glycan array binding signal (z-score),[8],-0.322
same,glycan array binding signal (z-score),[9],-0.344
same,glycan array binding signal (z-score),[10],-0.113
same,glycan array binding signal (z-score),[11],-0.333
same,glycan array binding signal (z-score),[12],-0.149
same,glycan array binding signal (z-score),[13],-0.451
same,glycan array binding signal (z-score),[14],-0.394
same,glycan array binding signal (z-score),[15],0.506
same,glycan array binding signal (z-score),[16],0.216
same,glycan array binding signal (z-score),[17],-0.38
same,glycan array binding signal (z-score),[18],-0.189
same,glycan array binding signal (z-score),[19],2.57
same,glycan array binding signal (z-score),Fuc(a1-2)Gal(b1-4)Glc,-0.515
same,glycan array binding signal (z-score),Fuc(a1-2)Gal(b1-4)Glc6S,0.445
same,glycan array binding signal (z-score),Fuc(a1-2)Gal(b1-4)GlcNAc,-0.459
same,glycan array binding signal (z-score),[20],0.465
same,glycan array binding signal (z-score),[21],-0.086
same,glycan array binding signal (z-score),[22],-0.345
same,glycan array binding signal (z-score),[23],-0.171
same,glycan array binding signal (z-score),[24],-0.585

# Fetched one by one from the entries so far (2):
binder,measurement,setting,value
Epa19 (Candida glabrata) (protein) MGSSHHHHHHSSGLVPRGSHMASSKDPTRFPIGCSPQVLKTQPGLAVKLYSYGHPVPGCSYITYQYPDFPRSGYKKERKLADITGVNGKIDIDLKPNDPCRVLTGHLPSNYNYPDTLTYTNFTMILYGYFQPKVTGYHTFNLEADDLLFMNLGAGNAFDCCKAESTLDNFGNYQSYSLWGSDYAKANITVFLVSGVYYPIRLFYVNRDNNAVIDFSFTTEFDKEKVHDFTSYFFSASDGEQCPGSV,glycan array binding signal (z-score),[24],-0.585
same,glycan array binding signal (z-score),[14],-0.394
